# According to the supplement of paper PMC4604168 (melanoma cell lines):
# This is one part of the list. Many values rest on one well or one pass, so single values are uncertain.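 The apoptosis fraction was the count of cleaved-PARP antibody-stained nuclei relative to all DNA-stained nuclei, imaged in 1,536-well plates. Screening doses were set so most cells survived, and baseline and induced cleaved-PARP levels vary greatly across cell lines.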
# Key:
# Assay in all cases: cleaved PARP positive nuclei fraction relative to DMSO control; melanoma cells; higher = more apoptosis
# Conditions in all cases: library dose: low library concentration; 72 h
# [1] = tested on: MZ2-MEL
# [2] = tested on: MeWo
# [3] = tested on: RPMI7951
# [4] = tested on: RVH-421
# [5] = tested on: SkMel28
# [6] = tested on: SkMel2
# [7] = tested on: SkMel30
# [8] = tested on: SkMel5
# [9] = tested on: UACC257
# [10] = tested on: UACC62
# [11] = tested on: WM115
# [12] = tested on: WM1716
# [13] = tested on: WM1745
# [14] = tested on: WM3526
# [15] = tested on: WM3619
# [16] = tested on: WM451Lu
Compound,cleaved PARP positive nuclei fraction [1] [%],cleaved PARP positive nuclei fraction [2] [%],cleaved PARP positive nuclei fraction [3] [%],cleaved PARP positive nuclei fraction [4] [%],cleaved PARP positive nuclei fraction [5] [%],cleaved PARP positive nuclei fraction [6] [%],cleaved PARP positive nuclei fraction [7] [%],cleaved PARP positive nuclei fraction [8] [%],cleaved PARP positive nuclei fraction [9] [%],cleaved PARP positive nuclei fraction [10] [%],cleaved PARP positive nuclei fraction [11] [%],cleaved PARP positive nuclei fraction [12] [%],cleaved PARP positive nuclei fraction [13] [%],cleaved PARP positive nuclei fraction [14] [%],cleaved PARP positive nuclei fraction [15] [%],cleaved PARP positive nuclei fraction [16] [%]
"C[C@@H]1CCN(C(=O)CC#N)C[C@@H]1N(C)c1ncnc2[nH]ccc12 + O=C(O)c1ccc(-c2c[nH]c3ncc(-c4ccccc4)cc23)cc1C1CCCC1 [GSK650394] (first compound 1 µM, partner dose 0.16 µM)",161,215,90.8,44,69.3,163,133,45.2,72,67.3,98,76.1,90.6,64.8,112,105
"CC(=O)c1c(C)c2cnc(Nc3ccc(N4CCNCC4)cn3)nc2n(C2CCCC2)c1=O [palbociclib] + COc1cc2c(Oc3ccc4[nH]c(C)cc4c3F)ncnc2cc1OCCCN1CCCC1 [cediranib] (first compound 0.04 µM, partner dose 0.4 µM)",146,119,164,152,42.3,117,72.4,302,51.9,112,328,100,143,92.6,110,115
"Nc1cccc2c1CN(C1CCC(=O)NC1=O)C2=O (centres undefined) [lenalidomide] + NC(=O)Nc1cc(-c2cccc(F)c2)sc1C(=O)N[C@H]1CCCNC1 [AZD7762] (first compound 1 µM, partner dose 0.02 µM)",72.5,47.5,98.9,42.5,27.4,134,62.2,30.5,50.8,329,76.6,149,97.3,61.3,128,97.5
"CO[C@@H]1[C@H](N(C)C(=O)c2ccccc2)C[C@H]2O[C@]1(C)n1c3ccccc3c3c4c(c5c6ccccc6n2c5c31)C(=O)NC4 [Midostaurin] + O=C(O)c1ccc(-c2c[nH]c3ncc(-c4ccccc4)cc23)cc1C1CCCC1 [GSK650394] (first compound 0.08 µM, partner dose 0.16 µM)",111,210,34.9,41.8,79.5,104,127,121,66.1,46.8,36.8,147,97.2,68.4,94.9,30.8
"C=CCNC1=C2C[C@@H](C)C[C@H](OC)[C@H](O)[C@@H](C)/C=C(\C)[C@H](OC(N)=O)[C@@H](OC)/C=C\C=C(/C)C(=O)NC(=CC1=O)C2=O [Tanespimycin] + CCN(CC)CCCCNc1ncc2cc(-c3cc(OC)cc(OC)c3)c(NC(=O)NC(C)(C)C)nc2n1 [PD173074] (first compound 0.002 µM, partner dose 0.1 µM)",64.2,44.7,35.7,81.8,85.8,65.9,116,222,84.4,40.3,122,237,262,66.3,97.4,109
"Cn1c(Nc2ccc(C(F)(F)F)cc2)nc2cc(Oc3ccnc(-c4ncc(C(F)(F)F)[nH]4)c3)ccc21 + NCC(=O)Nc1ccc(-n2nc(C(F)(F)F)cc2-c2ccc3c(ccc4ccccc43)c2)cc1 [OSU03012] (first compound 0.08 µM, partner dose 1 µM)",120,133,214,193,93.2,141,174,230,951,357,1100,171,126,112,127,363
"CO[C@@H]1[C@H](N(C)C(=O)c2ccccc2)C[C@H]2O[C@]1(C)n1c3ccccc3c3c4c(c5c6ccccc6n2c5c31)C(=O)NC4 [Midostaurin] + CN(C)S(=O)(=O)c1ccc2c(c1)/C(=C/c1cc3c([nH]1)CCCC3)C(=O)N2 [SU6656] (first compound 0.08 µM, partner dose 0.4 µM)",53,378,67.6,182,69.5,71.1,82.8,80.6,574,224,524,216,154,64.3,98.3,32.6
"Cn1c(Nc2ccc(C(F)(F)F)cc2)nc2cc(Oc3ccnc(-c4ncc(C(F)(F)F)[nH]4)c3)ccc21 + COc1cc2c(Oc3ccc4[nH]c(C)cc4c3F)ncnc2cc1OCCCN1CCCC1 [cediranib] (first compound 0.08 µM, partner dose 0.4 µM)",278,49,113,110,57.1,156,118,95.6,736,332,553,193,138,104,157,253
"Cn1c(Nc2ccc(C(F)(F)F)cc2)nc2cc(Oc3ccnc(-c4ncc(C(F)(F)F)[nH]4)c3)ccc21 + C=CCn1c(=O)c2cnc(Nc3ccc(N4CCN(C)CC4)cc3)nc2n1-c1cccc(C(C)(C)O)n1 [MK1775] (first compound 0.08 µM, partner dose 0.02 µM)",78.1,174,121,192,511,148,104,342,938,1130,2100,194,159,142,135,65.8
